The source of these data is the supplement of paper PMC11732987, “Enantioselective OTUD7B fragment discovery through chemoproteomics screening and high-throughput optimisation” (Communications Chemistry, 2025).

Sequences of proteins named here, by UniProt entry; tags and fusion partners are left off. A change or cut given only in a name is not applied to a line headed by its entry.
UniProt Q12894: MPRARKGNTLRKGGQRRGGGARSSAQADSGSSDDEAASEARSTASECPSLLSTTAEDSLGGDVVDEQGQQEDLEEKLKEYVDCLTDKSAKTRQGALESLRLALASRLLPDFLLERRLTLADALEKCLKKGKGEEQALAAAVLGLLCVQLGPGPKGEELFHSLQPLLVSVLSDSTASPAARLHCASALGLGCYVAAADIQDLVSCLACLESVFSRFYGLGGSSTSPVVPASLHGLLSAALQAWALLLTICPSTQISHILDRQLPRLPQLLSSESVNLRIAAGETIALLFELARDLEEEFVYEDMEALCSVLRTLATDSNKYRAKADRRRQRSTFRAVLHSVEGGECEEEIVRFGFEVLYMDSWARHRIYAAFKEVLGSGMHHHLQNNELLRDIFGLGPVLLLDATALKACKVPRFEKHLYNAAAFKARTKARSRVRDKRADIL
UniProt Q9UPZ3: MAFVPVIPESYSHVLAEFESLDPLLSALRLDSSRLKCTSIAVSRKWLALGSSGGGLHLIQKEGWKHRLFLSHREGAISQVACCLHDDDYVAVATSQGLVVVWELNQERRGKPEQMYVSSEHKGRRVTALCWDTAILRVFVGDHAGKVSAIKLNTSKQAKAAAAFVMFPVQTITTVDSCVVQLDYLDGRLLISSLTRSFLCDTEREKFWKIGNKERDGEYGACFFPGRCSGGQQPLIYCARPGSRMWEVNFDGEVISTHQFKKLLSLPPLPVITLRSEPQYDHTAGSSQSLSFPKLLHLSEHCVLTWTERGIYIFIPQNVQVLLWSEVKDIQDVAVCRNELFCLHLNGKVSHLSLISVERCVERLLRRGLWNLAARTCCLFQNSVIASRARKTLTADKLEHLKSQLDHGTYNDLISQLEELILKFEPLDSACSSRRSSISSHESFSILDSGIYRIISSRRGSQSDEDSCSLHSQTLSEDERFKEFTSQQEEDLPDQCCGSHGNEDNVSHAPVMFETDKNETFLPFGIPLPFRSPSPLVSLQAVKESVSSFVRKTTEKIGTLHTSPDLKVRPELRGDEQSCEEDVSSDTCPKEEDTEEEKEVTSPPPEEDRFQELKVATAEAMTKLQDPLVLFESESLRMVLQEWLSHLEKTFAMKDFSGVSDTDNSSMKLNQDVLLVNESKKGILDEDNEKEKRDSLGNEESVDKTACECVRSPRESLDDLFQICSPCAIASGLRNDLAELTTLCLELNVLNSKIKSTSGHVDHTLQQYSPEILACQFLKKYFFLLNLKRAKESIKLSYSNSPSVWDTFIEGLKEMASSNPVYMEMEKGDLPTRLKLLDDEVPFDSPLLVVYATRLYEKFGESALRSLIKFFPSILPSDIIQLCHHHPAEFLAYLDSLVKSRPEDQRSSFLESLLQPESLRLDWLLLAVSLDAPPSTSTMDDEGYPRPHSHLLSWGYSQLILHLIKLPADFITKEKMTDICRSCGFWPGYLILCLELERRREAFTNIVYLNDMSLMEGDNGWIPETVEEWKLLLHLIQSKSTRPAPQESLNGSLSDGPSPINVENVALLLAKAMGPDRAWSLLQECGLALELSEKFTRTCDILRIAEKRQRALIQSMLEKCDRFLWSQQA
UniProt Q13576: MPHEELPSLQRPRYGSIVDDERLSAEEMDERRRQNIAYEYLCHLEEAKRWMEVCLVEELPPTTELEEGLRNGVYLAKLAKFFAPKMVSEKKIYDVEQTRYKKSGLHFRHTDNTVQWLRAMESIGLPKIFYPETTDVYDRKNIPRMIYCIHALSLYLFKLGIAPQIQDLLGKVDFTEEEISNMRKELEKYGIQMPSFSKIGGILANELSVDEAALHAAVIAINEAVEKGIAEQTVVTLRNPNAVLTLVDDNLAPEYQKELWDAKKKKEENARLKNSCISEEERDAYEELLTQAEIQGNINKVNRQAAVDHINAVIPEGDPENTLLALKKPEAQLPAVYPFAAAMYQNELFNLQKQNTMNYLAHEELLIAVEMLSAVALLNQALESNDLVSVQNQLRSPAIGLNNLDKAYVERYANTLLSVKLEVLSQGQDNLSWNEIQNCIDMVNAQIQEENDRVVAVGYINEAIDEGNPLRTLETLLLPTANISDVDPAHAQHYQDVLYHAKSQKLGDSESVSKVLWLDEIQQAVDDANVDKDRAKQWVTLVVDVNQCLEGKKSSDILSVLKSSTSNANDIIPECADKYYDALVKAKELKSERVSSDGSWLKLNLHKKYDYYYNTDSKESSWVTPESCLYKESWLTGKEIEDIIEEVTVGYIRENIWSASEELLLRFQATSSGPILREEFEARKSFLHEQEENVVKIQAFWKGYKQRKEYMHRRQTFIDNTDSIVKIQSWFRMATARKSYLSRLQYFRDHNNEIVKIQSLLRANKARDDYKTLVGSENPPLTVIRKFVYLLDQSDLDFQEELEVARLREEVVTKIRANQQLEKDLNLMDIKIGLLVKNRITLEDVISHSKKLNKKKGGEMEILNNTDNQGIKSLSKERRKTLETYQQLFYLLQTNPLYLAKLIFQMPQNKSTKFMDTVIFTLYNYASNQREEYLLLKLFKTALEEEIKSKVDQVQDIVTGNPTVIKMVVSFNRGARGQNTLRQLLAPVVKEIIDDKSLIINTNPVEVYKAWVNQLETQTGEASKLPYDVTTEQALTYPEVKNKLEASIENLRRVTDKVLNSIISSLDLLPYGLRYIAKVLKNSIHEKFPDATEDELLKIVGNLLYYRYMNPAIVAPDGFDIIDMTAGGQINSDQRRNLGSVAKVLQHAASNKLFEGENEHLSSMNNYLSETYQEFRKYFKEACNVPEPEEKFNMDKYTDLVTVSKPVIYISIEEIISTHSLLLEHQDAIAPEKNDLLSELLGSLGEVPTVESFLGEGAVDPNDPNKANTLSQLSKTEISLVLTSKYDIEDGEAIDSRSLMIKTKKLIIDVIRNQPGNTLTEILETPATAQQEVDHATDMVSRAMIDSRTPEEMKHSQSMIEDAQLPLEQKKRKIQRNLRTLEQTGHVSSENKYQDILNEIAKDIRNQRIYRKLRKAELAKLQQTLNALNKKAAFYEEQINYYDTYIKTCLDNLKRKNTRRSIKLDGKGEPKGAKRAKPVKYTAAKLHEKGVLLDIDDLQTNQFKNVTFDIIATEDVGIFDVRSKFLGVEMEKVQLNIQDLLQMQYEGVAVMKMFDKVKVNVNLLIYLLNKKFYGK
UniProt Q9UI26: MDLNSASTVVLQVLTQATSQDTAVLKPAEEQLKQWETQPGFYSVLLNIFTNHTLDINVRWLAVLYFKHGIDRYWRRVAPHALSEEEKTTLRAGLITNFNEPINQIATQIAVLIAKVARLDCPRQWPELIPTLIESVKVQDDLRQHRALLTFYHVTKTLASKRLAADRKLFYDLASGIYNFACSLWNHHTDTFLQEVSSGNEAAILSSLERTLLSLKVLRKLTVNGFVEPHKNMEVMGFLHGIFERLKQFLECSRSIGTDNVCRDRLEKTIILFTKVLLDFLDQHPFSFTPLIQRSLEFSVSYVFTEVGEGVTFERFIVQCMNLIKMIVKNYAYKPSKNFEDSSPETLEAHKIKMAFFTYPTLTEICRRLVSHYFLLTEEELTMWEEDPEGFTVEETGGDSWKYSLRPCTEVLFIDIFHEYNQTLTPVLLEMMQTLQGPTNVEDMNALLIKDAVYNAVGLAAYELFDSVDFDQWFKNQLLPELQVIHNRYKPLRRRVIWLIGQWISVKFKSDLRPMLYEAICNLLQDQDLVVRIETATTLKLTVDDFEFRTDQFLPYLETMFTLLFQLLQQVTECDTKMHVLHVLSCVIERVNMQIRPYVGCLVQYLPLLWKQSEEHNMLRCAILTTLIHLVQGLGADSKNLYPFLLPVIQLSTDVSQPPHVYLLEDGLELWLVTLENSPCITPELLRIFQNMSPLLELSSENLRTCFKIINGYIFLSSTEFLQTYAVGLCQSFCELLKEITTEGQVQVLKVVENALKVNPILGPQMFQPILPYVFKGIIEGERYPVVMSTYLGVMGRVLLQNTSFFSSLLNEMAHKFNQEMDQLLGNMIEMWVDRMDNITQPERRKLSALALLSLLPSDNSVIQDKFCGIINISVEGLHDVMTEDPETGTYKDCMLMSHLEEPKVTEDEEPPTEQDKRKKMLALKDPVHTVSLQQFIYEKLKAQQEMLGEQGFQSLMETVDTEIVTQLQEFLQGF
UniProt P78552: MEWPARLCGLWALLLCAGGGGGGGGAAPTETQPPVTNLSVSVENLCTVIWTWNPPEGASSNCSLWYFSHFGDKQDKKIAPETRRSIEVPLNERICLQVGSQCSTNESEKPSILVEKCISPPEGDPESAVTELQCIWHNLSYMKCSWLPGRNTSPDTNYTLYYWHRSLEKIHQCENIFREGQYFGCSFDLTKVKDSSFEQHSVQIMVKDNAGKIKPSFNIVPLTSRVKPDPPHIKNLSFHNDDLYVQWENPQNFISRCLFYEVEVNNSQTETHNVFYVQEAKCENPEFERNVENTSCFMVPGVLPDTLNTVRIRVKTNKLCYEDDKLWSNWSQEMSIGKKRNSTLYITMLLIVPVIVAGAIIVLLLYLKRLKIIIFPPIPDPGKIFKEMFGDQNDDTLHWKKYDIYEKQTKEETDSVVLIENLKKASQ

Compound in experiment [1]: ClCC(=O)N[C@@H]1CCCc2ccccc12
The experiment in a line: log2 mean competition ratio of IA-DTB cysteine labelling (DMSO/compound) (log2 ratio); higher = stronger cysteine engagement by compound. The following applies: treatment time: 4 h, cell line lysate: HEK293T. How it is done:
(§1)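 IA-DTB competitive cysteine chemoproteomics in HEK293T RIPA lysate. Lysates were treated with compound 29 or 30 at 50 or 200 µM for 4 h, then IA-DTB (500 µM, 1 h), trypsin-digested, NeutrAvidin-enriched and analysed by diaPASEF. Competition ratio = intensity DMSO / intensity compound (n=4 treated, n=64 DMSO); binding: mean log2 CR ≥ 1 and p ≤ 0.05 plus QC filters. Target is the cysteine site.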

Compound in experiment [2]: ClCC(=O)N[C@H]1CCCc2ccccc12
The description is as above. The following applies: treatment time: 4 h, cell line lysate: HEK293T. Here is the method: as §1

Some of the results follow. The data scatter; read single values as rough.

As to IFRD2 C409 (UniProt Q12894), the “log2 mean competition ratio” value in experiment [1] (50 µM) was 0.111; in experiment [1] (200 µM), -0.107; in experiment [2] (50 µM), -0.237; in experiment [2] (200 µM), -0.185.

As for HPS5 C222 (UniProt Q9UPZ3), the “log2 mean competition ratio” value in experiment [1] (50 µM) is -0.217; in experiment [1] (200 µM) it was 0.292; in experiment [2] (50 µM), 0.0562; in experiment [2] (200 µM), 0.374.

For the target IQGAP2 C1449 (UniProt Q13576), the “log2 mean competition ratio” value was -0.101 in experiment [1] (50 µM), -0.242 in experiment [1] (200 µM), 0.0463 in experiment [2] (50 µM) and -0.0564 in experiment [2] (200 µM).

For the target IPO11 C262 (UniProt Q9UI26), the “log2 mean competition ratio” value was determined as 0.0405 in experiment [1] (50 µM), 0.289 in experiment [1] (200 µM), 0.176 in experiment [2] (50 µM) and 0.321 in experiment [2] (200 µM).

As to IL13RA1 C282 (UniProt P78552), the results for the “log2 mean competition ratio” value in experiment [1] (50 µM), in experiment [2] (50 µM) and in experiment [2] (200 µM) were -0.0622, -0.316 and 0.178, respectively.

Turning to HPCAL1 C185 (UniProt P37235), the “log2 mean competition ratio” value in experiment [1] (50 µM) was -0.252; in experiment [1] (200 µM) it was -0.112; in experiment [2] (50 µM) it was 0.411; in experiment [2] (200 µM) it was 0.238.
